The exact form of at least one protein or probe is not confirmed. At least one verdict rests on a figure or table, not on a statement of the authors.
Molecular target: prostate specific antigen (PSA) (UniProt P07288)
Experiment: aptasensor: hairpin opening read by HCR, GelRed and graphene oxide fluorescence (indirect)
Details: H2 and H3 hairpins, GelRed, GO, response linear 0.1-200 ng/mL PSA, LOD 10 pg/mL (not a Kd); commercial protein; folded or branched DNA

Amino acid sequences for entries named in this document (tags omitted). Residues count along the entry.
UniProt P07288, 25-261: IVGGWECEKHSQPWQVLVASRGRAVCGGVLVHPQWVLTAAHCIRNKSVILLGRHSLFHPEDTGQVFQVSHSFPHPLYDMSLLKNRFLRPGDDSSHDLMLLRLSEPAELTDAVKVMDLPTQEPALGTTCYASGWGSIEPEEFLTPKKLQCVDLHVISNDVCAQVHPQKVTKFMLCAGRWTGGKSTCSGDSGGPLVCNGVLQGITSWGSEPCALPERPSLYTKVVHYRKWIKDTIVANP

AGCTTTAATTAACATGTCCGACAAAAAAAAATTAATTAAAGCTCGCCATCAAATAGC [H1 (PSA aptamer hairpin with HCR trigger)]
binding result: binds

— PMC6429520
